This passage reports IC50 results from PMC11432454, “An Ingenane-Type Diterpene from Euphorbia kansui Promoted Cell Apoptosis and Macrophage Polarization via the Regulation of PKC Signaling Pathways” (International Journal of Molecular Sciences, 2024).

For one test, the system named is A549 cells. The experiment in a line: MTT assay, cell viability of A549 cells. It counts as cell-based. The conditions noted are these: Homo sapiens, n = 3. How it is done:
(§1) 8 × 10^4 cells/well were incubated in 96T wells for 24 h, and the cells were treated with a drug-containing medium for a specified time. Cells were added 20 μL 0.5% MTT (Sigma, USA) to each well, continued to incubate at 37 °C for 3.5 h, then the medium was discarded and 150 μL of DMSO was added to each well to dissolve the purple formazan. The cells were shaken for 15 min at room temperature and read at 490 nm. Cell viability (%) = ([…])/(ODcontrol − ODblank) × 100%. IC50 (half maximal inhibitory concentration) was calculated by SPSS 27.0 software.
Background: Formazan colour is commonly taken as a measure of viable cells.

In a further test the test system is MCF-7 cells. The experiment in a line: MTT assay, cell viability of MCF-7 cells. Type of test: cell-based. To be noted: Homo sapiens, MCF7, n = 3. How it is done:
as §1

As usually defined, the IC50 is the concentration that inhibits the measured activity by half.

As for `COc1cccc2c1C(=O)c1c(O)c3c(c(O)c1C2=O)C[C@@](O)(C(=O)CO)C[C@@H]3O[C@H]1C[C@H](N)[C@H](O)[C@H](C)O1` [Adr, adriamycin, reference compound], the IC50 is 5.98 ± 2.06 µM in the test on A549 cells and 3.31 ± 1.01 µM with MCF-7 cells.
